Assay results: paper PMC6511868
These are yes or no findings as the source states them, for the method shown. Binding seen in cells or lysates may run through a third protein. For some of these results: Binding can be weak; no strength is given. For some of these results: Sequences can lack the tags named with a protein.

The chains behind the UniProt entries cited, without tags or fusion partners. Where a name states a change or a piece, a line headed by the entry shows the natural chain unless it says otherwise.
UniProt P06103: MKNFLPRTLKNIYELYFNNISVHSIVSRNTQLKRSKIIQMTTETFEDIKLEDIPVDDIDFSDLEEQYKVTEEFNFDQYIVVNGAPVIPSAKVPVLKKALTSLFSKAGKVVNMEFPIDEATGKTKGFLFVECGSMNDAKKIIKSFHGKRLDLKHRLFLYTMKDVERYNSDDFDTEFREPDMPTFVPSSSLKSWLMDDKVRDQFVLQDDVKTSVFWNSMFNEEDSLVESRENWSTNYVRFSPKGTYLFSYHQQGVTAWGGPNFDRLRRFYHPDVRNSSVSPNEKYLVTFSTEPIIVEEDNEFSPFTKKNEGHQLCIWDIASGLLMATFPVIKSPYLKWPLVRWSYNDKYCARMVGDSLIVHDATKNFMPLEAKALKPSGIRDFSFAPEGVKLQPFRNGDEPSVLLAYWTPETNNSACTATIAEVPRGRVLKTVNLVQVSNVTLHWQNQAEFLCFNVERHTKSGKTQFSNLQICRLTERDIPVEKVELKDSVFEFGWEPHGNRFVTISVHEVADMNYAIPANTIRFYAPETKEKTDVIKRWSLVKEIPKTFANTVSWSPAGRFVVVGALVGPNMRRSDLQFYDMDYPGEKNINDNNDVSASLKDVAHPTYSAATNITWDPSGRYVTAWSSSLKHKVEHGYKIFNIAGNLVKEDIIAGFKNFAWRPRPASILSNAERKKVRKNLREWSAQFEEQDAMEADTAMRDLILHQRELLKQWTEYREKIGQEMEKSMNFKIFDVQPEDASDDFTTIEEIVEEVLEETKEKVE
UniProt P05453: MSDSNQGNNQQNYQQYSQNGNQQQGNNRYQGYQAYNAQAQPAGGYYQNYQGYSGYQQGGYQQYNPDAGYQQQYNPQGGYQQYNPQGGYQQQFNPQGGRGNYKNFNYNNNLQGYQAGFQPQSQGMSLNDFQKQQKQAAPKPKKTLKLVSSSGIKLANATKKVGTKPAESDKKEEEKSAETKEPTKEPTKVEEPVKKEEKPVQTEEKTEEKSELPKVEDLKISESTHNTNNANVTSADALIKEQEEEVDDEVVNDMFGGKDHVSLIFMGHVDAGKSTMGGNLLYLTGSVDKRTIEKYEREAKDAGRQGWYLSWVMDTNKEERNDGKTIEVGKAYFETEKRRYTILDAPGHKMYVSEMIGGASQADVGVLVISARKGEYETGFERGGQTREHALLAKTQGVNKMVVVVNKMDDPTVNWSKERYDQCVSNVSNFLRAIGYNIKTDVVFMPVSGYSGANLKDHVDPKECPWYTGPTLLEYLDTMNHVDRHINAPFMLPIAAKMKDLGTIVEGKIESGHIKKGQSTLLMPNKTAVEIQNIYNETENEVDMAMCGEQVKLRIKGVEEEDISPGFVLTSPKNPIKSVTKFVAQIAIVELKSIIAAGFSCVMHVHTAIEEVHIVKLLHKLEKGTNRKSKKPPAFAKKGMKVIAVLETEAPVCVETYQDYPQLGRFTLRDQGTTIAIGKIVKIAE
UniProt P04456: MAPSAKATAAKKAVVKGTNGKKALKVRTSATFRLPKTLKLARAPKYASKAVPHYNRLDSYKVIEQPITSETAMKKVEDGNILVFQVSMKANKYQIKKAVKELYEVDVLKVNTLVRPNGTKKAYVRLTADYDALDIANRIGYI
UniProt P12385: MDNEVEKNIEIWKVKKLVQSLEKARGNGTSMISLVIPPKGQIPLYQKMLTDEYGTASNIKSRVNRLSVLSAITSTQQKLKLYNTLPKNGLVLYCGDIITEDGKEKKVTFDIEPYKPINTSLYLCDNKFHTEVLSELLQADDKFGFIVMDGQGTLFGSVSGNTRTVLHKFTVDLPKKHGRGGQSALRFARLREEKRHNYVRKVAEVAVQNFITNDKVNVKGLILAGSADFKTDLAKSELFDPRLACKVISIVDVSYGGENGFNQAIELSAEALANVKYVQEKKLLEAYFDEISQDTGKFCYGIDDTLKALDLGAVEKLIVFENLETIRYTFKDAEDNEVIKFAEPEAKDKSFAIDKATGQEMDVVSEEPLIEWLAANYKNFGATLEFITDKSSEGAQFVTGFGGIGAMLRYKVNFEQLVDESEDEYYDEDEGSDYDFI

Assays:
Prt1-GFP (S. cerevisiae) = Prt1-GFP (S. cerevisiae) (UniProt P06103); assay: co-IP; yeast lysate of sup45-2 cells; Prt1-GFP precipitated, western blot
[1] = target: T1, Dbp5 as precipitated in the Dbp5 IPs (tag not told) (S. cerevisiae) (UniProt P20449); assay: co-IP; yeast lysates; GFP-Trap_A beads (GFP-tagged baits) or IgG-Sepharose (TAP-tagged baits), 3 h at 4°C, western blot; wild type and the strains sup45-2, rat8-2, rat7ΔN shifted to 37°C for 1 h; also 0.5 mg/ml cycloheximide for 30 min; also high copy RLI1
T1 sequence: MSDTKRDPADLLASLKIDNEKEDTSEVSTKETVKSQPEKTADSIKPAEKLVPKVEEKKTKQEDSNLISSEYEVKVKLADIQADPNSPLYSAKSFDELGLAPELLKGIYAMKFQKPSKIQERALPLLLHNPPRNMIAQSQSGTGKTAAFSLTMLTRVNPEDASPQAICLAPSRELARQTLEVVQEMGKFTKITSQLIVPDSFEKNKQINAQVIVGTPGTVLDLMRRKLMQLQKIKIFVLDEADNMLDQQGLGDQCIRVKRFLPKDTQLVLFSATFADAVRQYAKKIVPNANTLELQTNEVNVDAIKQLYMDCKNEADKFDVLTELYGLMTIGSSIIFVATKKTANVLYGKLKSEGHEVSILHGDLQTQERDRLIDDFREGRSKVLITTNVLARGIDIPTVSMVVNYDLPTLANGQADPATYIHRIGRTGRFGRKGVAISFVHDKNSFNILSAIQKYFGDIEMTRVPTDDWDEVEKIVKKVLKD

[2] = target: eRF3 as used in the eRF3/eRF1 co-IPs of Figures 3B and 3D (tag not told) (S. cerevisiae) (UniProt P05453); assay: as above
[3] = target: uL23 as bait of the co-IP of Figure 1C (tag not told) (S. cerevisiae) (UniProt P04456); assay: as above

With “mutated eRF1 protein sup45-2 (from UniProt P12385)” the binding (Prt1-GFP (S. cerevisiae)) was “no binding”, the binding [1] was “binds” and the binding [2] was “binds”. The binding [3] was “binds”.
